Record: PubChem BioAssay AID602196 (INSERM, 2012)
Shown is one part, drawn at random, of about 23,000 reagents tested. Of all reagents, 455 (2%) are marked active. 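Active includes both protection and sensitisation; some change values fall well beyond the stated -50 to +50 range.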 Further read-outs or replicates are left out here. Reagent sequences are not shown. Not given: the amount of reagent.

Screen: 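Modifiers of cisplatin sensitivity in A549 cells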
Cell system: human A549 lung cancer cells
Knock-down reagent: siRNA pair against human genes
Duration: 48 h transfection before cisplatin; time from cisplatin to read-out not stated
Challenge: cisplatin at a dose killing half of control-siRNA cells; exact dose and duration not given
Measured: 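Cisplatin cell death as a shift from the 50% death seen with control siRNA; siRNAs toxic or growth-blocking alone scored 0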
Direction: two-siRNA summed score (-2 to +2): higher = both siRNAs protect from cisplatin killing; -2 means both sensitise
Rule for the call: 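Each siRNA scores 0 if harmful alone by LDH or WST-1, otherwise +1 if it reduces and -1 if it increases cisplatin killing; a gene is active when both siRNAs agree (sum +2 or -2)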
Calls: active = both siRNAs shift cisplatin killing the same way; inactive = no consistent shift, or siRNA harmful alone

gene,two-siRNA summed score (-2 to +2),activity call
CCDC140 (GeneID 151278),0,inactive
IGF2R (GeneID 3482),-1,inactive
LOC441457,0,inactive
AZIN2 (GeneID 113451),0,inactive
ZNF623 (GeneID 9831),1,inactive
ATRX (GeneID 546),-1,inactive
ZBTB14 (GeneID 7541),0,inactive
RAB4A (GeneID 5867),1,inactive
MYCBP (GeneID 26292),-1,inactive
LINC00928 (GeneID 283761),0,inactive
LOC392895,0,inactive
NPM3 (GeneID 10360),1,inactive
ZNF444 (GeneID 55311),0,inactive
LOC441615,1,inactive
TMTC2 (GeneID 160335),0,inactive
MTHFD2L (GeneID 441024),1,inactive
RPL10P17 (GeneID 390998),0,inactive
LOC401553,0,inactive
USF2 (GeneID 7392),1,inactive
ODF4 (GeneID 146852),0,inactive
SIGMAR1 (GeneID 10280),-1,inactive
LOC441046,0,inactive
WDR43 (GeneID 23160),1,inactive
LOC388698,0,inactive
ACOX1 (GeneID 51),0,inactive
AOC3 (GeneID 8639),0,inactive
GTF2H2 (GeneID 2966),0,inactive
SUOX (GeneID 6821),0,inactive
RPS16 (GeneID 6217),0,inactive
LOC339231,0,inactive
MTRES1 (GeneID 51250),0,inactive
GTF2IP20 (GeneID 441124),0,inactive
GATA5 (GeneID 140628),0,inactive
LRRC37A6P (GeneID 387646),1,inactive
FABP1 (GeneID 2168),0,inactive
LOC401715,1,inactive
GRIPAP1 (GeneID 56850),-1,inactive
AKAP3 (GeneID 10566),1,inactive
FIBP (GeneID 9158),0,inactive
TMEM47 (GeneID 83604),0,inactive
TUBB8P11 (GeneID 388579),0,inactive
ELF4 (GeneID 2000),0,inactive
ANKFN1 (GeneID 162282),1,inactive
THBS1 (GeneID 7057),0,inactive
LOC442719,0,inactive
RDH14 (GeneID 57665),0,inactive

The list goes on, starting with the last 7 of the part before.
gene,two-siRNA summed score (-2 to +2),activity call
TMEM47 (GeneID 83604),0,inactive
TUBB8P11 (GeneID 388579),0,inactive
ELF4 (GeneID 2000),0,inactive
ANKFN1 (GeneID 162282),1,inactive
THBS1 (GeneID 7057),0,inactive
LOC442719,0,inactive
RDH14 (GeneID 57665),0,inactive
P2RY11 (GeneID 5032),1,inactive
TEX19 (GeneID 400629),0,inactive
PNPLA3 (GeneID 80339),1,inactive
RAMP2 (GeneID 10266),-1,inactive
MARCO (GeneID 8685),0,inactive
SMS (GeneID 6611),0,inactive
TIMM8A (GeneID 1678),0,inactive
AMBRA1 (GeneID 55626),0,inactive
ZPBP2 (GeneID 124626),0,inactive
MKRN10P (GeneID 441455),-1,inactive
WARS1P1 (GeneID 341112),0,inactive
RPL14P1 (GeneID 144581),0,inactive
LOC440454,1,inactive
ZNF12 (GeneID 7559),1,inactive
FLVCR2 (GeneID 55640),0,inactive
PNPLA7 (GeneID 375775),0,inactive
CYTIP (GeneID 9595),0,inactive
SLC25A34 (GeneID 284723),1,inactive
PSMC4 (GeneID 5704),0,inactive
LOC93463 (GeneID 93463),0,inactive
CCN5 (GeneID 8839),0,inactive
ANKRA2 (GeneID 57763),0,inactive
LOC202546,1,inactive
LINC00851 (GeneID 440757),1,inactive
MRPL19 (GeneID 9801),0,inactive
GSTP1 (GeneID 2950),0,inactive
LOC339902 (GeneID 339902),0,inactive
